PubChem BioAssay AID743121, NCATS, 2013
The whole screen tested about 26,000 reagents; below is a part drawn at random. 167 of them (0.63%) were called active. 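Calls are per gene from RSA p-values that are not deposited; an individual active-marked siRNA can sensitise only weakly.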 The numbers tell different reagents against one gene apart.

Test: 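Knock-downs that sensitise breast cancer cells to camptothecin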 (primary screen)
Cell system: MDA-MB-231 cells, a human breast cancer line
Reagents: single siRNA against human genes, 20 nM siRNA (0.8 pmol per well)
Duration: 120 h (drug added 48 h after transfection, read 72 h later)
Treatment: camptothecin 20 nM (about EC30) for 72 h; vehicle 0.1% DMSO in parallel plates
Measurement: 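Cell viability by ATP luminescence (CellTiter-Glo) as % of non-targeting siRNA wells, and the log2 ratio of viability without drug over viability with camptothecin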
Scale: log2 vehicle/camptothecin viability: higher = stronger sensitisation to camptothecin; viability with camptothecin and viability without drug: higher = more viable cells
Hit rule: 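Each gene scored by redundant siRNA activity (RSA) over its individual siRNA ratios; a gene is called active at p < 0.001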

log2 vehicle/camptothecin viability | viability with camptothecin (% of control) | viability without drug (% of control) | activity call | gene symbol | reagent
-0.163 | 98.5 | 88 | inactive | GPR83 (GeneID 10888) | 1
0.5 | 48 | 67.9 | inactive | GPR83 (GeneID 10888) | 2
-0.133 | 61.4 | 56 | inactive | GPR83 (GeneID 10888) | 3
0.277 | 31.3 | 37.9 | inactive | GPR83 (GeneID 10888) | 4
-0.713 | 96.6 | 59 | inactive | CD300C (GeneID 10871) | 1
-0.203 | 74.7 | 64.9 | inactive | CD300C (GeneID 10871) | 2
-0.777 | 52.5 | 30.6 | inactive | CD300C (GeneID 10871) | 3
0.0995 | 109 | 116 | inactive | CD300C (GeneID 10871) | 4
-0.196 | 101 | 88 | inactive | CNGA2 (GeneID 1260) | 1
-0.603 | 69.2 | 45.6 | inactive | CNGA2 (GeneID 1260) | 2
-0.062 | 106 | 101 | inactive | CNGA2 (GeneID 1260) | 3
0.189 | 56.2 | 64.1 | inactive | CNGA2 (GeneID 1260) | 4
-0.299 | 104 | 84.4 | inactive | UBQLN3 (GeneID 50613) | 1
-0.196 | 64.2 | 56.1 | inactive | UBQLN3 (GeneID 50613) | 2
0.097 | 95.3 | 102 | inactive | UBQLN3 (GeneID 50613) | 3
-0.58 | 91.3 | 61.1 | inactive | UBQLN3 (GeneID 50613) | 4
-0.27 | 64.2 | 53.3 | inactive | EIF3F (GeneID 8665) | 1
-0.351 | 61.4 | 48.2 | inactive | EIF3F (GeneID 8665) | 2
-0.459 | 75.9 | 55.2 | inactive | EIF3F (GeneID 8665) | 3
-0.363 | 74.2 | 57.7 | inactive | MS4A5 (GeneID 64232) | 1
-0.114 | 61.5 | 56.9 | inactive | MS4A5 (GeneID 64232) | 2
-0.0671 | 69 | 65.9 | inactive | MS4A5 (GeneID 64232) | 3
-0.0404 | 88.1 | 85.6 | inactive | MS4A5 (GeneID 64232) | 4
-0.0206 | 84.1 | 82.9 | inactive | RAB3A (GeneID 5864) | 1
0.167 | 58.3 | 65.4 | inactive | RAB3A (GeneID 5864) | 2
-0.308 | 87.3 | 70.5 | inactive | RAB3A (GeneID 5864) | 3
0.0797 | 95.5 | 101 | inactive | TNFRSF11B (GeneID 4982) | 1
-0.245 | 102 | 86.1 | inactive | TNFRSF11B (GeneID 4982) | 2
-0.0178 | 102 | 101 | inactive | TNFRSF11B (GeneID 4982) | 3
-0.0562 | 90.5 | 87 | inactive | TNFRSF11B (GeneID 4982) | 4
0.215 | 109 | 126 | inactive | MEFV (GeneID 4210) | 1
0.042 | 62.5 | 64.3 | inactive | MEFV (GeneID 4210) | 2
-0.399 | 101 | 76.9 | inactive | MEFV (GeneID 4210) | 3
-0.265 | 105 | 87.1 | inactive | PKD2L1 (GeneID 9033) | 1
-0.188 | 31.3 | 27.4 | inactive | PKD2L1 (GeneID 9033) | 2
-0.0654 | 97.5 | 93.2 | inactive | PKD2L1 (GeneID 9033) | 3
-0.0309 | 15.6 | 15.3 | inactive | DCLRE1B (GeneID 64858) | 1
0.467 | 40.7 | 56.3 | inactive | DCLRE1B (GeneID 64858) | 2
-0.115 | 82.1 | 75.8 | inactive | DCLRE1B (GeneID 64858) | 3
-0.251 | 96.7 | 81.3 | inactive | SERPINH1 (GeneID 871) | 1
-0.353 | 70.6 | 55.3 | inactive | SERPINH1 (GeneID 871) | 2
-0.291 | 66.7 | 54.5 | inactive | SERPINH1 (GeneID 871) | 3
1.42 | 6.69 | 17.9 | inactive | SERPINH1 (GeneID 871) | 4
-0.278 | 72.3 | 59.6 | inactive | INPP5D (GeneID 3635) | 1
0.503 | 56.1 | 79.4 | inactive | INPP5D (GeneID 3635) | 2
0.22 | 83.7 | 97.5 | inactive | INPP5D (GeneID 3635) | 3
0.321 | 50 | 62.4 | inactive | INPP5D (GeneID 3635) | 4
0.185 | 78.8 | 89.6 | inactive | ARSK (GeneID 153642) | 1
-0.00908 | 103 | 103 | inactive | ARSK (GeneID 153642) | 2
-0.0671 | 122 | 117 | inactive | ARSK (GeneID 153642) | 3
-0.349 | 82.6 | 64.8 | inactive | ARSK (GeneID 153642) | 4
-0.258 | 97.2 | 81.3 | inactive | ANGPT4 (GeneID 51378) | 1
-0.31 | 39.8 | 32.1 | inactive | ANGPT4 (GeneID 51378) | 2
-0.327 | 108 | 85.9 | inactive | ANGPT4 (GeneID 51378) | 3
0.0115 | 87.2 | 87.9 | inactive | ANGPT4 (GeneID 51378) | 4
-0.143 | 108 | 97.4 | inactive | SMARCAL1 (GeneID 50485) | 1
-0.0403 | 79.4 | 77.2 | inactive | SMARCAL1 (GeneID 50485) | 2
-0.456 | 79.3 | 57.8 | inactive | SMARCAL1 (GeneID 50485) | 3
-0.0207 | 88.9 | 87.6 | inactive | SMARCAL1 (GeneID 50485) | 4
-0.192 | 65.6 | 57.4 | inactive | CALCB (GeneID 797) | 1
-0.309 | 79.2 | 63.9 | inactive | CALCB (GeneID 797) | 2
-0.316 | 99.7 | 80 | inactive | CALCB (GeneID 797) | 3
-0.251 | 65.6 | 55.1 | inactive | CALCB (GeneID 797) | 4
-0.0615 | 21.4 | 20.6 | inactive | MTUS1 (GeneID 57509) | 1
-0.183 | 103 | 91 | inactive | MTUS1 (GeneID 57509) | 2
-0.282 | 89.7 | 73.8 | inactive | MTUS1 (GeneID 57509) | 3
-0.33 | 74.7 | 59.4 | inactive | MTUS1 (GeneID 57509) | 4
0.029 | 87.4 | 89.1 | inactive | PHKB (GeneID 5257) | 1
0.183 | 53 | 60.2 | inactive | PHKB (GeneID 5257) | 2
-0.169 | 97.2 | 86.4 | inactive | PHKB (GeneID 5257) | 3
-0.435 | 88.5 | 65.5 | inactive | PHKB (GeneID 5257) | 4
0.314 | 27.8 | 34.6 | inactive | ELK4 (GeneID 2005) | 1
-0.0763 | 101 | 95.4 | inactive | ELK4 (GeneID 2005) | 2
0.0611 | 95.2 | 99.3 | inactive | ELK4 (GeneID 2005) | 3
-0.337 | 26.1 | 20.6 | inactive | ELK4 (GeneID 2005) | 4
-0.434 | 89.7 | 66.4 | inactive | CMYA5 (GeneID 202333) | 1
0.901 | 57.2 | 107 | inactive | CMYA5 (GeneID 202333) | 2
0.00769 | 80.5 | 81 | inactive | CMYA5 (GeneID 202333) | 3
0.0611 | 80.8 | 84.3 | inactive | CMYA5 (GeneID 202333) | 4
-0.165 | 88.5 | 79 | inactive | PPTC7 (GeneID 160760) | 1
-0.0721 | 22.5 | 21.4 | inactive | PPTC7 (GeneID 160760) | 2
-0.529 | 70.5 | 48.8 | inactive | PPTC7 (GeneID 160760) | 3
-0.677 | 114 | 71.1 | inactive | PPTC7 (GeneID 160760) | 4
-0.17 | 48.9 | 43.4 | inactive | FUT2 (GeneID 2524) | 1
-0.275 | 70.6 | 58.3 | inactive | FUT2 (GeneID 2524) | 2
-0.281 | 94.3 | 77.6 | inactive | FUT2 (GeneID 2524) | 3
-0.58 | 57.7 | 38.6 | inactive | FUT2 (GeneID 2524) | 4

Copied from the listing for reference:
log2 vehicle/camptothecin viability | viability with camptothecin (% of control) | viability without drug (% of control) | activity call | gene symbol | reagent
0.183 | 53 | 60.2 | inactive | PHKB (GeneID 5257) | 2
-0.169 | 97.2 | 86.4 | inactive | PHKB (GeneID 5257) | 3
-0.435 | 88.5 | 65.5 | inactive | PHKB (GeneID 5257) | 4
0.314 | 27.8 | 34.6 | inactive | ELK4 (GeneID 2005) | 1
-0.0763 | 101 | 95.4 | inactive | ELK4 (GeneID 2005) | 2
0.0611 | 95.2 | 99.3 | inactive | ELK4 (GeneID 2005) | 3
-0.337 | 26.1 | 20.6 | inactive | ELK4 (GeneID 2005) | 4
-0.434 | 89.7 | 66.4 | inactive | CMYA5 (GeneID 202333) | 1
